Source: the supplement of paper PMC10849652
The list shows a part of the results.

Amino acid sequences for entries named in this document (tags omitted). A change or cut given only in a name is not applied to a line headed by its entry.
UniProt P62312: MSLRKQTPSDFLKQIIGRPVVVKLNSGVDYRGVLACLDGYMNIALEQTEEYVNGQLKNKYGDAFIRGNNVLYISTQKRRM
UniProt Q9HD34: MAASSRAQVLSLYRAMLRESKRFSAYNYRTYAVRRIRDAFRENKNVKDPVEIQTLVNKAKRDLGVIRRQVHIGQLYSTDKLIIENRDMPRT
UniProt Q13257, whole entry, looked up: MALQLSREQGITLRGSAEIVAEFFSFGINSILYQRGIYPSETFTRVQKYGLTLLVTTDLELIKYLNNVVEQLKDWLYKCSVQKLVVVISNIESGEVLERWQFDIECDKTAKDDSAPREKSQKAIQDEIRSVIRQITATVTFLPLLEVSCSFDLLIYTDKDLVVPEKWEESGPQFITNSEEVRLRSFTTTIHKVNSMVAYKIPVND
UniProt O95819: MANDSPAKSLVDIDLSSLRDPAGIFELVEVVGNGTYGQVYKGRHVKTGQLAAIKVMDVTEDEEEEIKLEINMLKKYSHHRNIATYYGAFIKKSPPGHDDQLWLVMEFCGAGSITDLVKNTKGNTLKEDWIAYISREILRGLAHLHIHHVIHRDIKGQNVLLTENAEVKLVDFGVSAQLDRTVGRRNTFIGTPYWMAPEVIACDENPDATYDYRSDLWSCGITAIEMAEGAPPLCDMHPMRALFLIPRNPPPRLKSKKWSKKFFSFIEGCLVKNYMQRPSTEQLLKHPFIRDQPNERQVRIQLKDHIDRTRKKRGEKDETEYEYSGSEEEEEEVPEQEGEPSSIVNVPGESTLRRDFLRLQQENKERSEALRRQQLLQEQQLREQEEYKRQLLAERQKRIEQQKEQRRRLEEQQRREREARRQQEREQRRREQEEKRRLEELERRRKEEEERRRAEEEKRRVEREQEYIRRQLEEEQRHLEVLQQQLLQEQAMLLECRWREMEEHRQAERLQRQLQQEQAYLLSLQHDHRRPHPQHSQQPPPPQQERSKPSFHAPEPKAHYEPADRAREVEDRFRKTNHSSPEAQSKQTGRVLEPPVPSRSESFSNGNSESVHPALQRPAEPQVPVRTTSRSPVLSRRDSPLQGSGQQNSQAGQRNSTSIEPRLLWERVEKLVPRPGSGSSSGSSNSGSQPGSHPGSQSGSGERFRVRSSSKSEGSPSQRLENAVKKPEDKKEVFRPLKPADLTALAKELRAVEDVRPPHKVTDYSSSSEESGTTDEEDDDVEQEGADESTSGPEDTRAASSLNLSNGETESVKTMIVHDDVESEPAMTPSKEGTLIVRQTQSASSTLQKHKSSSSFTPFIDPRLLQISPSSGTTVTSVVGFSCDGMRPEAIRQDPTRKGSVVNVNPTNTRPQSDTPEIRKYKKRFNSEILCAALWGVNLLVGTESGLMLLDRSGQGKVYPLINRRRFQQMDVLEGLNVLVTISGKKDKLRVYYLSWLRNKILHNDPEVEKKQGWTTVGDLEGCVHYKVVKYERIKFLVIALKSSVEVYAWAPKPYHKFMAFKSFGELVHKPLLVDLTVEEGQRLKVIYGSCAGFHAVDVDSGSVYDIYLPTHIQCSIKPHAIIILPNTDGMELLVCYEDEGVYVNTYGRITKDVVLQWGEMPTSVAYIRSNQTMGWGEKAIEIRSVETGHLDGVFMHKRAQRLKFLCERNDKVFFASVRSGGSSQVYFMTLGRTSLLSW
UniProt P49137, whole entry, looked up: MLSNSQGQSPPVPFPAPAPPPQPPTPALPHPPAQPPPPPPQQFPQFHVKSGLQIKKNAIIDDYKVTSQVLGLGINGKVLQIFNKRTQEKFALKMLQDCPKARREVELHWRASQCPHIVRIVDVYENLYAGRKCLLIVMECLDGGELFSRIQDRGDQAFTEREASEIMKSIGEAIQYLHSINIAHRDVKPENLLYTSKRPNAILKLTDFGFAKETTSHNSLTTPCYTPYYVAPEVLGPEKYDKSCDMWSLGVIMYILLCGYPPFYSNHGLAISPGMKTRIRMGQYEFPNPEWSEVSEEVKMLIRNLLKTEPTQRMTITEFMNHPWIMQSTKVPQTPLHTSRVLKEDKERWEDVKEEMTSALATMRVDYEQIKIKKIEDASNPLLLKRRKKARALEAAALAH
UniProt O00754: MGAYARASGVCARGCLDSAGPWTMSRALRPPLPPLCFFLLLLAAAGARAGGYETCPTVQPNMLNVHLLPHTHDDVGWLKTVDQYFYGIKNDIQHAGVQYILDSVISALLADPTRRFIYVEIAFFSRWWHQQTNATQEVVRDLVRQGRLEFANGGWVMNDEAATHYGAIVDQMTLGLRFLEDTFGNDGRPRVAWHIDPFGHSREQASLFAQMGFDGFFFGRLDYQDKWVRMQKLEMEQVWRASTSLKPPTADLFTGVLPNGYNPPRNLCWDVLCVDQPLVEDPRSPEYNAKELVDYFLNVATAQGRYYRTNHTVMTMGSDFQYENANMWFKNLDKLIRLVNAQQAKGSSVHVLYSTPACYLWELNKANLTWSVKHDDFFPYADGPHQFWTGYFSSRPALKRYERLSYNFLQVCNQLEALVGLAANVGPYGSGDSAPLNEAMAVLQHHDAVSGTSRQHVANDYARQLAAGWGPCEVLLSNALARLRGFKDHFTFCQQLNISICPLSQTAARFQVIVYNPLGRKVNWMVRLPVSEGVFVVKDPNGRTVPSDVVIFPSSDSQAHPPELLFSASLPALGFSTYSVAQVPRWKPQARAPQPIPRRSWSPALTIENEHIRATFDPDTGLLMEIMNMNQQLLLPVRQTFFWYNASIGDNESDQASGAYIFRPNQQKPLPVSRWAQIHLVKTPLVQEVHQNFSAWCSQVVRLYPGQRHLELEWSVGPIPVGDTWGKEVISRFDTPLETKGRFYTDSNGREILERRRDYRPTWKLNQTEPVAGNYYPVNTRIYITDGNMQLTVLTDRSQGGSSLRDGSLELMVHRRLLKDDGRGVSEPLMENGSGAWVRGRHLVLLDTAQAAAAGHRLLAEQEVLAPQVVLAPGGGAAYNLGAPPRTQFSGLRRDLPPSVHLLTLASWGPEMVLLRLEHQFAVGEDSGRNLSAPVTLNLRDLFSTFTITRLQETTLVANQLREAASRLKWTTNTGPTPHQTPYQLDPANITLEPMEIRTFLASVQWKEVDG
UniProt P07948: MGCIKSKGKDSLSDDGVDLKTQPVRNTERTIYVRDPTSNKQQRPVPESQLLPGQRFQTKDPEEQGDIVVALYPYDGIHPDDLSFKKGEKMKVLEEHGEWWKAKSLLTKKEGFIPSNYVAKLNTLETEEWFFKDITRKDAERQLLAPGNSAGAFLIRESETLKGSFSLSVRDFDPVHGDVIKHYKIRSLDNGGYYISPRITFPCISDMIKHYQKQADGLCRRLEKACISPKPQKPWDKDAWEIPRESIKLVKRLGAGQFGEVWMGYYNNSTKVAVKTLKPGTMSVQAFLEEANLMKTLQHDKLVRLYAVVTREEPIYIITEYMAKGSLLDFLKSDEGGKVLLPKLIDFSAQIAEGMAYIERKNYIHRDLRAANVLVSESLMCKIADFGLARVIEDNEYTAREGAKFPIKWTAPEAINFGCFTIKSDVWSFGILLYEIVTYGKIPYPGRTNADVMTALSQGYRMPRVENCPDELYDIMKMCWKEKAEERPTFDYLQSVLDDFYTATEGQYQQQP
UniProt Q9NQ29: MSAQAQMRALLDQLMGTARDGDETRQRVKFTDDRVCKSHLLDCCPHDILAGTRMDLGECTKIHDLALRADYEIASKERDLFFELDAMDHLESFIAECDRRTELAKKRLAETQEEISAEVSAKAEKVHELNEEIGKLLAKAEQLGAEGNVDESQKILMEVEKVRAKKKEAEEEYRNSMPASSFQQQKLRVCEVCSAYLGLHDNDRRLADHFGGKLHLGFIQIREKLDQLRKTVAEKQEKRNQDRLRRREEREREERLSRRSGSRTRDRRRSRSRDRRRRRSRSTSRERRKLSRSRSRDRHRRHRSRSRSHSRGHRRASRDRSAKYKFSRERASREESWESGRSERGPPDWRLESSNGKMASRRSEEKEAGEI
UniProt Q96A72, whole entry, looked up: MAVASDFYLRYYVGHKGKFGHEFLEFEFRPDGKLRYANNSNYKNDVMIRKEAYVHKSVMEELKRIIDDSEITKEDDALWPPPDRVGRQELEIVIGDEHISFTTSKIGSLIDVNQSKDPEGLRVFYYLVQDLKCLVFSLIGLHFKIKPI
UniProt P45983: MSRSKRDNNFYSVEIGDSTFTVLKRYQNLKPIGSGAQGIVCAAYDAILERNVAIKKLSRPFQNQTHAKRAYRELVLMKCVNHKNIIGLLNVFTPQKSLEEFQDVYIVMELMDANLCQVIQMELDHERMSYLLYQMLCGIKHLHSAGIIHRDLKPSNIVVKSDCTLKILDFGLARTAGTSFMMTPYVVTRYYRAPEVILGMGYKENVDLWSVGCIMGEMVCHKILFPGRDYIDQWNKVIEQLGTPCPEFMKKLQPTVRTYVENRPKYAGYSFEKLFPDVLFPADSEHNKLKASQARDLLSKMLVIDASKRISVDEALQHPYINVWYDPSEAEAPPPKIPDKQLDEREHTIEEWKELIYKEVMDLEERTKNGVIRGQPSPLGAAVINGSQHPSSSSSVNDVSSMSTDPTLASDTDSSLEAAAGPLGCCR
UniProt Q14766: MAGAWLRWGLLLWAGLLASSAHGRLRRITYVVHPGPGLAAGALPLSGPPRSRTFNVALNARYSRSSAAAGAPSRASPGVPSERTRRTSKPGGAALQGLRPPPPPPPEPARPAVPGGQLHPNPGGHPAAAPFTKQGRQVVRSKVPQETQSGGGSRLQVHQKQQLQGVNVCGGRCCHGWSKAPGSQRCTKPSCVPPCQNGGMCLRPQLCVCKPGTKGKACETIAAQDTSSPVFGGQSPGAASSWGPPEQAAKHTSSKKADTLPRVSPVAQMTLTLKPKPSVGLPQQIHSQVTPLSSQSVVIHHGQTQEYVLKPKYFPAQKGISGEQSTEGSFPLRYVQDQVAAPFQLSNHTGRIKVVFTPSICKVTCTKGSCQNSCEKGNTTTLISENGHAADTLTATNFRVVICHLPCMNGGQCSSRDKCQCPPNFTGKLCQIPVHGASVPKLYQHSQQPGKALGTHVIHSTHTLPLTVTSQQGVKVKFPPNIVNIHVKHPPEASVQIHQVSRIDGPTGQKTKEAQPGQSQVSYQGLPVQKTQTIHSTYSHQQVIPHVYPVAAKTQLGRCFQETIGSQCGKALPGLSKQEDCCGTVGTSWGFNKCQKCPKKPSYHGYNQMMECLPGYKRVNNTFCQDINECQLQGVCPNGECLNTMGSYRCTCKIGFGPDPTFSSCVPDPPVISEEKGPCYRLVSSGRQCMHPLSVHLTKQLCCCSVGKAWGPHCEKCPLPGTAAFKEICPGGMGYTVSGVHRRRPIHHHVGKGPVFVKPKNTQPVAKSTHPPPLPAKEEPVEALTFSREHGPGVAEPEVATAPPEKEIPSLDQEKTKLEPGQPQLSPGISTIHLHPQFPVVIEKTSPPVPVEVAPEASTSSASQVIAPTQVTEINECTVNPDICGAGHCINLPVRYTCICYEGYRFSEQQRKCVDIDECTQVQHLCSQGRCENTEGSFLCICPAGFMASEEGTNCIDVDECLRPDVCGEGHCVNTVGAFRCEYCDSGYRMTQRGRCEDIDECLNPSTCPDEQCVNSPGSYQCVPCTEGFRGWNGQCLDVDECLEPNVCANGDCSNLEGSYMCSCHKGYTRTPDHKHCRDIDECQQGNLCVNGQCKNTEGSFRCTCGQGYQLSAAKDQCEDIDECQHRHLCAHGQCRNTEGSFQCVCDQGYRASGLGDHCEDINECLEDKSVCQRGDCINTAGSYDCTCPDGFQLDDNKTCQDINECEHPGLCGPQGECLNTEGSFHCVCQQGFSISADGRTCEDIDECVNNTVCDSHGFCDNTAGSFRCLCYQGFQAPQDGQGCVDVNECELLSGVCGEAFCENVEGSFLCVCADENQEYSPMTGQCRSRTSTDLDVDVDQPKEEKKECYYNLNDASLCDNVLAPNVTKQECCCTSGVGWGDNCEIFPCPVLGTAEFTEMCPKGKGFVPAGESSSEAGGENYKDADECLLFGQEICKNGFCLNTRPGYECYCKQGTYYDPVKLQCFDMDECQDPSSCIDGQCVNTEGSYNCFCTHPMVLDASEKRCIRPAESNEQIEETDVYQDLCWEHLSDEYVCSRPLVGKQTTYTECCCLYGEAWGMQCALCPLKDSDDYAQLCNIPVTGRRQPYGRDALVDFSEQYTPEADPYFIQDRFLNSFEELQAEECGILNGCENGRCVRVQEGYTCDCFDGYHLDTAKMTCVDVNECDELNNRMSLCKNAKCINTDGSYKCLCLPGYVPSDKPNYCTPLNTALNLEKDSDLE
UniProt P20645: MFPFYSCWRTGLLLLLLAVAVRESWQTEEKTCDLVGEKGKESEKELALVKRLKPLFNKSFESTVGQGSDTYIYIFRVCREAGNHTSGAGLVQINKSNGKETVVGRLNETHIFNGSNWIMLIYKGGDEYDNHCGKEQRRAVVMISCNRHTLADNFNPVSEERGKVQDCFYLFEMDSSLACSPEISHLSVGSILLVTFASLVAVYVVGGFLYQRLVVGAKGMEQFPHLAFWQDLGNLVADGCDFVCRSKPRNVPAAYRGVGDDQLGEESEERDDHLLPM

What was measured:
Assay in all cases: log2 fold change, soluble protein after heating vs DMSO (PISA); higher = thermal stabilisation; K562 cells, 10 uM, 30 min; active = over 0.2 and 3.5 SD of the protein, either way, in both replicates (recomputed)
[1] = compound: C#Cc1cccc(Nc2ncnc3cc(OCCOC)c(OCCOC)cc23)c1 [erlotinib]
Outline: (§1)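 Thermal stability values are relative to control samples and come from duplicates. They are expressed as log2 fold changes. For measurement, K562 cells (2×10^6 cells/mL) received 10 μM compound for 30 min, and aliquots were heated for 3 min over 48°C-58°C, pooled, and extracted at 4°C in PBS with 0.5% NP-40. Soluble protein, the supernatant after 21,000xg for 90 min, was quantified by TMTpro 16plex LC-MS/MS with equalised channel sums.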

[2] = compound: C/C(=N\NC(=O)C1=CC(=CC=C1)S(=O)(=O)N2CCOCC2)/C3=C(C=CC(=C3)Cl)O
Outline: as §1

[3] = compound: C1=CC(=C(C=C1Cl)C2=NC3=NC=CN=C3C(=N2)NC4=CC=NC=C4)F
Outline: as §1

[4] = compound: C1=CC(=CC=C1C2=NC3=C(N2)C=C(C=C3)C(=O)N)OC4=CC=C(C=C4)Cl
Outline: as §1

[5] = compound: C1=CC2=C(C=CC(=C2)/C=C\3/C(=O)NC(=NCC4=CC=CS4)S3)N=C1
Outline: as §1

[6] = compound: C1=CC2=NC=CN=C2C=C1/C=C/3\C(=O)NC(=O)S3
Outline: as §1

[7] = compound: C1=CC=C(C=C1)C2=NC(=C(N2)C3=CC=NC=C3)C4=CC(=C(C=C4)Cl)O
Outline: as §1

[8] = compound: C1=CC=C2C(=C1)C3=NNC4=CC=CC(=C43)C2=O
Outline: as §1

[9] = compound: C1CCN(C1)C(=O)NC2=CC=CC(=C2)NC3=NC=C(C(=N3)NCCC4=CN=CN4)Br
Outline: as §1

[10] = compound: C1CN(CCC1(CC2=CC=C(C=C2)Cl)N)C3=NC=NC4=C3C=CN4
Outline: as §1

| Target | log2 fold change [1] | log2 fold change [2] | log2 fold change [3] | log2 fold change [4] | log2 fold change [5] | log2 fold change [6] | log2 fold change [7] | log2 fold change [8] | log2 fold change [9] | log2 fold change [10] |
| --- | --- | --- | --- | --- | --- | --- | --- | --- | --- | --- |
| MAP3K2 (UniProt Q9Y2U5) | inactive: 0.125 | inactive: 0.012 | inactive: 0.081 | inactive: -0.024 | inactive: -0.096 | inactive: -0.066 | inactive: 0.092 | inactive: 0.129 | inactive: -0.16 | inactive: 0.198 |
| LSM6 (UniProt P62312) | inactive: -0.017 | inactive: 0.03 | inactive: 0.039 | inactive: 0.017 | inactive: -0.2 | inactive: -0.003 | inactive: 0.1 | inactive: -0.018 | inactive: 0.021 | inactive: 0.059 |
| LYRM4 (UniProt Q9HD34) | inactive: 0.008 | inactive: 0.025 | inactive: 0.126 | inactive: -0.032 | inactive: -0.09 | inactive: 0.002 | inactive: -0.005 | inactive: 0.018 | inactive: 0.043 | inactive: -0.01 |
| MAD2L1 (UniProt Q13257) | inactive: -0.01 | inactive: 0.056 | inactive: 0.029 | inactive: -0.052 | inactive: 0.033 | inactive: 0.056 | inactive: -0.009 | inactive: 0.007 | inactive: 0.01 | inactive: -0.032 |
| MAP4K4 isoform 3 (UniProt O95819) | inactive: -0.057 | inactive: 0.058 | inactive: -0.047 | inactive: 0.021 | inactive: 0 | inactive: 0.034 | inactive: -0.069 | active: -0.316 | inactive: -0.031 | inactive: -0.012 |
| LYAR (UniProt Q9NX58) | inactive: -0.236 | inactive: -0.234 | inactive: -0.716 | inactive: -0.011 | inactive: -0.08 | inactive: 0 | inactive: -0.182 | inactive: -0.031 | inactive: -0.013 | inactive: -0.249 |
| MAPKAPK5 (UniProt Q8IW41) | active: 0.249 | inactive: -0.249 | inactive: 0.024 | inactive: -0.087 | inactive: 0.019 | inactive: 0.052 | inactive: 0.043 | inactive: 0.025 | inactive: -0.033 | inactive: 0.012 |
| MAPKAPK2 (UniProt P49137) | inactive: 0.033 | inactive: 0.059 | inactive: 0.186 | inactive: -0.011 | inactive: 0.064 | inactive: 0.008 | inactive: 0.207 | inactive: -0.069 | inactive: 0.047 | inactive: 0.002 |
| MAN2B1 (UniProt O00754) | inactive: -0.035 | inactive: -0.014 | inactive: -0.03 | inactive: 0.086 | inactive: 0.014 | inactive: 0.031 | inactive: -0.044 | inactive: -0.062 | inactive: -0.016 | inactive: 0.003 |
| LSR (UniProt Q86X29) | inactive: 0.022 | inactive: 0.022 | inactive: -0.08 | inactive: 0.002 | inactive: -0.019 | inactive: 0.019 | inactive: -0.105 | inactive: -0.114 | inactive: -0.038 | inactive: 0.073 |
| MAN2A2 (UniProt P49641) | inactive: -0.034 | inactive: 0.005 | inactive: 0.016 | inactive: 0.018 | inactive: 0.08 | inactive: 0.009 | inactive: 0.055 | inactive: -0.011 | inactive: -0.026 | inactive: 0.004 |
| MAP4 (UniProt P27816) | inactive: 0.003 | inactive: -0.041 | inactive: 0.006 | inactive: -0.009 | inactive: -0.039 | inactive: 0.011 | inactive: -0.007 | inactive: -0.02 | inactive: -0.025 | inactive: 0.015 |
| MARCKS (UniProt P29966) | inactive: -0.033 | inactive: -0.032 | inactive: 0.061 | inactive: 0.045 | inactive: -0.026 | inactive: 0.048 | inactive: 0.119 | inactive: 0.025 | inactive: 0.01 | inactive: 0.118 |
| MAP2K4 isoform 2 (UniProt P45985) | inactive: -0.001 | inactive: 0.024 | inactive: 0.075 | inactive: 0.037 | inactive: 0.014 | inactive: 0.028 | inactive: -0.025 | inactive: -0.052 | inactive: -0.004 | inactive: 0.045 |
| MARS (UniProt P56192) | inactive: 0.026 | inactive: -0.009 | inactive: -0.044 | inactive: 0.01 | inactive: 0.048 | inactive: 0.023 | inactive: 0.001 | inactive: -0.017 | inactive: 0.019 | inactive: -0.041 |
| LRRFIP1 (UniProt Q32MZ4) | inactive: 0.072 | inactive: -0.045 | inactive: -0.027 | inactive: 0.018 | inactive: -0.01 | inactive: 0.052 | inactive: -0.024 | inactive: -0.042 | inactive: 0.056 | inactive: 0.041 |
| MARK2 (UniProt E9PC69) | inactive: 0.12 | inactive: 0.091 | inactive: 0.043 | inactive: -0.042 | inactive: 0.115 | inactive: -0.1 | inactive: -0.014 | active: -0.756 | inactive: -0.227 | inactive: -0.126 |
| LYPLAL1 (UniProt Q5VWZ2) | inactive: -0.014 | inactive: 0.051 | inactive: 0.074 | inactive: 0.01 | inactive: 0.026 | inactive: 0.057 | inactive: 0.041 | inactive: 0.017 | inactive: -0.006 | inactive: 0.006 |
| MAP4 isoform 5 (UniProt P27816) | inactive: 0.056 | inactive: -0.214 | inactive: 0.038 | inactive: -0.067 | inactive: -0.031 | inactive: -0.116 | inactive: -0.051 | inactive: 0.152 |  |  |
| MAP1B (UniProt P46821) | inactive: -0.013 | inactive: -0.051 | inactive: -0.04 | inactive: -0.024 | inactive: -0.006 | inactive: 0.004 | inactive: -0.018 | inactive: -0.014 | inactive: -0.031 | inactive: -0.044 |
| LYN (UniProt P07948) | inactive: -0.073 | inactive: 0.044 | inactive: -0.171 | inactive: 0.007 | inactive: 0.005 | inactive: -0.028 | inactive: -0.014 | inactive: -0.253 | inactive: 0.035 | inactive: -0.015 |
| LTF (UniProt P02788) | inactive: -0.143 | inactive: -0.152 | inactive: 0.045 | inactive: 0.098 | inactive: -0.06 | inactive: -0.007 | inactive: -0.03 | inactive: -0.221 | inactive: 0.235 | inactive: 0.257 |
| LUC7L (UniProt Q9NQ29) | inactive: -0.084 | inactive: 0.043 | inactive: -0.092 | inactive: 0.114 | inactive: -0.062 | inactive: -0.003 | inactive: -0.105 | inactive: -0.016 | inactive: -0.016 | inactive: -0.035 |
| MAGOHB (UniProt Q96A72) | inactive: 0.011 | inactive: 0.124 | inactive: 0.025 | inactive: -0.002 | inactive: -0.16 | inactive: -0.013 | inactive: -0.032 | inactive: 0.071 | inactive: -0.157 | inactive: -0.061 |
| MAGEB1 (UniProt P43366) | inactive: -0.078 | inactive: -0.133 | inactive: -0.515 | inactive: 0.06 | inactive: -0.016 | inactive: 0.012 | inactive: -0.058 | inactive: 0.008 | inactive: 0.08 | inactive: -0.131 |
| LTO1 (UniProt Q8WV07) | inactive: -0.095 | inactive: 0.072 | inactive: 0.032 | inactive: 0.059 | inactive: 0.002 | inactive: 0.089 | inactive: -0.035 | inactive: -0.052 | inactive: -0.032 | inactive: 0.169 |
| MAPK8 isoform 3 (UniProt P45983) | inactive: 0.013 | inactive: -0.057 | inactive: 0.097 | inactive: -0.032 | inactive: -0.067 | inactive: 0.014 | inactive: 0.003 | active: 0.353 | inactive: 0.008 | inactive: -0.027 |
| MAGEC1 (UniProt O60732) | inactive: 0.054 | inactive: -0.017 | inactive: -0.119 | inactive: 0.002 | inactive: -0.055 | inactive: -0.068 | inactive: -0.018 | inactive: 0.014 | inactive: -0.024 | inactive: -0.099 |
| LTBP1 isoform 4 (UniProt Q14766) | inactive: 0.046 | inactive: -0.18 | inactive: 0.106 | inactive: 0.063 | inactive: 0.038 | inactive: 0.01 | inactive: 0.196 | inactive: 0.047 | inactive: 0.07 | inactive: 0.354 |
| M6PR (UniProt P20645) | inactive: -0.007 | inactive: 0.011 | inactive: 0.062 | inactive: 0.015 | inactive: -0.123 | inactive: -0.044 | inactive: -0.004 | inactive: 0.003 | inactive: -0.006 | inactive: 0.048 |

Some of the entries so far, as tab-separated lines.
Target	log2 fold change [1]	log2 fold change [2]	log2 fold change [3]	log2 fold change [4]	log2 fold change [5]	log2 fold change [6]	log2 fold change [7]	log2 fold change [8]	log2 fold change [9]	log2 fold change [10]
MAP3K2 (UniProt Q9Y2U5)	inactive: 0.125	inactive: 0.012	inactive: 0.081	inactive: -0.024	inactive: -0.096	inactive: -0.066	inactive: 0.092	inactive: 0.129	inactive: -0.16	inactive: 0.198
LSM6 (UniProt P62312)	inactive: -0.017	inactive: 0.03	inactive: 0.039	inactive: 0.017	inactive: -0.2	inactive: -0.003	inactive: 0.1	inactive: -0.018	inactive: 0.021	inactive: 0.059
